Results: PubChem BioAssay AID588590 (National Center for Advancing Translational Sciences (NCATS), 2011)
Out of some 390,000 compounds screened, about 4,000 (1%) were called active. Inconclusive results, whose numbers are uncertain, are shown with a selection of clear calls. Calls come from the whole dose curve; as a rule, active = well fitted inhibition curve with a large enough effect; inconclusive = small, poorly fitted or top-dose-only effect, or another doubt; inactive = no such curve, though single readings can be large or run the other way. A potency beside an inconclusive call is a rough fit, not a confirmed value.

Sequences of proteins named here, by UniProt entry; tags and fusion partners are left off. A change or cut given only in a name is not applied to a line headed by its entry.
UniProt Q9UNA4: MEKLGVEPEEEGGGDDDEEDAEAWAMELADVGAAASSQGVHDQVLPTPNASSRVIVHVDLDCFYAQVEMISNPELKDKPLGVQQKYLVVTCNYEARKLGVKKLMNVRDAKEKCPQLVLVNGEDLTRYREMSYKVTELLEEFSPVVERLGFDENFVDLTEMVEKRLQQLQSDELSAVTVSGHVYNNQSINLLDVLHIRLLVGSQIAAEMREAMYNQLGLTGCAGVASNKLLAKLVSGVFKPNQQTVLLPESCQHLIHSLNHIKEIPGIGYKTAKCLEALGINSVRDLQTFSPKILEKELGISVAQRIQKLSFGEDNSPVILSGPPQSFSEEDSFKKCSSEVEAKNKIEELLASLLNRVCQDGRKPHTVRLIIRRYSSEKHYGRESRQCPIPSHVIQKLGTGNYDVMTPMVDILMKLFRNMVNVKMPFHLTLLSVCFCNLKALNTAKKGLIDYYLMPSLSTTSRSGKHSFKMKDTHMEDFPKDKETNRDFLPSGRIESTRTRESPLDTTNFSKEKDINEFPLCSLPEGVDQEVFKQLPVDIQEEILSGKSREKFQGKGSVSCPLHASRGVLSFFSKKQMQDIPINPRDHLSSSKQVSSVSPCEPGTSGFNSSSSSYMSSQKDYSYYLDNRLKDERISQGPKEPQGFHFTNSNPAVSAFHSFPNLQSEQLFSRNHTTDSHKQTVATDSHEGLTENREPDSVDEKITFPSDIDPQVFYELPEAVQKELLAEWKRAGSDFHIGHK

What follows are compounds tested against DNA polymerase iota (Homo sapiens) (UniProt Q9UNA4) (assay: qHTS for Inhibitors of Polymerase Iota). Conditions: Pol iota fluorescent replication assay, 10 min; series mostly up to 115 µM.
Method in brief: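 Fluorescent replication assay read twice, at 0 min and 10 min after adding 50 nM (final) substrate. Enzyme (10 nM) and compounds were first incubated 15 min at room temperature; enzyme-free buffer wells were negative controls.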
Potency is the fitted concentration of half-maximal effect.

Row | SMILES | Potency
1 | COc1cc(CO)cc(Br)c1OCC(=O)Nc1cccc2ccccc12 | inactive
2 | Cc1nc(SCc2ccccc2C#N)n[nH]1 | inconclusive: 39.8 µM [inhibitor, single point]
3 | CCS(=O)(=O)N1Cc2ccccc2CC1C(=O)Nc1cc(S(C)(=O)=O)ccc1Cl (stereo not given) | active: 35.5 µM
4 | COc1ccc(OCCn2c(C3CC(=O)N(c4ccc(F)cc4)C3)nc3ccccc32)cc1 (stereo not given) | inconclusive: 70.8 µM [inhibitor, partial curve]
5 | COc1ccc(C)cc1-n1c(SCC(=O)NC2CC2)nc2ccccc2c1=O | inactive
6 | CCCCNC(=O)C1CCN(Cc2ccc(OCc3ccccc3)c(OC)c2)CC1 | inconclusive: 22.4 µM [inhibitor, partial curve, poor fit]
7 | Cc1cc(C)cc(NC(=O)Cc2ccc(S(=O)(=O)N3CCCC3)s2)c1 | inactive
8 | C[C@H]1O[C@@H](O[C@H]2CC[C@@]3(C)C(CC[C@]4(C)C3C=C[C@]35OC[C@@]6(CCC(C)(C)C[C@H]63)[C@@H](O)C[C@]54C)[C@]2(C)CO)[C@H](O)[C@@H](O[C@@H]2O[C@H](CO)[C@@H](O)[C@H](O)[C@H]2O)[C@H]1O (stereo not given in full) | inconclusive: 20 µM [inhibitor, partial curve, poor fit]
9 | CCOc1ccc(/C=C(\C(=O)O)c2ccc(S(=O)(=O)N3CCCCC3)s2)cc1OC | inactive
10 | N#Cc1c(NC(=O)c2ccncc2)sc2c1CCC2 | inconclusive: 22.4 µM [inhibitor, partial curve, poor fit]
11 | CCOC(=O)Cc1csc(NC(=O)CN(C)S(=O)(=O)c2ccc3c(c2)CCC(=O)N3)n1 | inconclusive: 39.8 µM [inhibitor, partial curve, poor fit]
12 | CC1(C)Cc2c(C#N)c(SCC(=O)c3ccccc3)nc(N3CCOCC3)c2CS1 | inconclusive: 28.2 µM [inhibitor, single point]
13 | COc1cc([C@H](Cc2ccccc2)NC(C)=O)oc(=O)c1 | inconclusive: 31.6 µM [inhibitor, partial curve, poor fit]
14 | O=C(Cn1cnc2c(oc3ccccc32)c1=O)NCc1ccco1 | inconclusive: 56.2 µM [inhibitor, partial curve, poor fit]
15 | CN(C)CCN(C(=O)/C=C/c1cccs1)c1nc2c(F)cc(F)cc2s1 | inconclusive: 31.6 µM [inhibitor, partial curve, poor fit]
16 | O=C(Nc1ccc(F)c(Cl)c1)N1CCN(C(=O)c2nsc3ccccc23)CC1 | inactive
17 | O=C(Cn1c(-c2cscn2)nc2ccccc21)Nc1ccc2ccccc2c1 | inconclusive: 100 µM [inhibitor, single point]
18 | COc1ccc(S(=O)(=O)n2oc(=O)cc2-c2ccccc2)cc1OC | inconclusive: 2.24 µM [inhibitor, full curve, poor fit]
19 | COC(=O)c1sc(NC(=S)NNC(=O)c2c(Br)c(C)nn2C)c(C(=O)OC)c1C | inconclusive: 39.8 µM [inhibitor, partial curve, poor fit]
20 | Cn1c(=O)c2[nH]c(SCCN3CCCCC3)nc2n(C)c1=S | inconclusive: 28.2 µM [inhibitor, single point]

Excerpt: entries 9 to 10
Row | SMILES | Potency
9 | CCOc1ccc(/C=C(\C(=O)O)c2ccc(S(=O)(=O)N3CCCCC3)s2)cc1OC | inactive
10 | N#Cc1c(NC(=O)c2ccncc2)sc2c1CCC2 | inconclusive: 22.4 µM [inhibitor, partial curve, poor fit]

Carrying on.

Row | SMILES | Potency
21 | COc1cccc(NC(=O)[C@H](Cc2ccccc2)NC(=O)[C@@H]2Cc3ccccc3CN2)c1 | inconclusive: 89.1 µM [inhibitor, partial curve, poor fit]
22 | CCOc1ccc(OCC)c(NC(=O)C2CCCN(S(=O)(=O)c3ccc4c(c3)oc(=O)n4C)C2)c1 (stereo not given) | inactive
23 | CCSc1nnc(NC(=O)C2CC=CCC2C(=O)O)s1 (stereo not given) | inconclusive: 28.2 µM [inhibitor, single point]
24 | CCOc1ccc(CC(=O)N/N=C/c2sccc2C)cc1 | inactive
25 | CCOc1cc(CNc2ccc(N(C)C)cc2)cc(Br)c1OCC(=O)NC(C)(C)C | active: 8.91 µM
26 | CC(C)C[C@@H](CNCC(=O)[C@H](CC(C)C)NC(=O)c1[nH]cnc1C(=O)N[C@@H](C)CN)NC(=O)c1nc[nH]c1C(=O)N[C@@H](Cc1ccccc1)C(=O)O | inconclusive: 7.94 µM [inhibitor, partial curve, poor fit]
27 | Cc1nnc(NC(=O)c2nc(S(=O)(=O)Cc3ccccc3C)ncc2Cl)s1 | inconclusive: 14.1 µM [inhibitor, full curve]
28 | CC(=O)Nc1nnc(SCc2cc(=O)c3cc(C)ccc3[nH]2)s1 | active: 79.4 µM
29 | Cc1nn2c(-c3cccc(NC(=O)CN4CCOCC4)c3)nnc2c2ccccc12 | active: 39.8 µM
30 | Cc1ccc(NC(=O)CN2C(=O)S/C(=C\c3cc(C)n(-c4ccc(C(=O)O)cc4)c3C)C2=O)cc1 | inconclusive: 50.1 µM [inhibitor, partial curve, poor fit]
31 | CCCCCOCC1CC(C/C(C)=N/Nc2nc(-c3ccccc3)cs2)C(=O)O1 (stereo not given) | inconclusive: 31.6 µM [inhibitor, partial curve, poor fit]
32 | CCOC(=O)c1c(NC(=O)C2C3C=CC(C3)C2C(=O)O)sc2c1CCC(C)C2 (stereo not given) | inconclusive: 112 µM [inhibitor, partial curve, poor fit]
33 | Cc1ccccc1-c1cc(C(=O)NCc2cccs2)nn1CC1CC(c2cccc([N+](=O)[O-])c2)=NO1 (stereo not given) | inconclusive: 10 µM [inhibitor, partial curve, poor fit]
34 | CCCCNC(=O)C1CCN(S(=O)(=O)c2cc(Br)cc3c2N(C(=O)CC)CC3)CC1 | inactive
35 | CCN(CC)CCCN(C(=O)Cn1nnc(-c2ccc(OC)c(OC)c2)n1)C(C(=O)NC(C)(C)C)c1ccc(F)cc1 (stereo not given) | inconclusive: 39.8 µM [inhibitor, single point]
36 | Cc1ccc(NCc2cccn2-c2nnc(N3CCCCCC3)s2)cc1 | inactive
37 | CCCCn1c(=O)n(-c2ccc(Br)cc2F)c(=O)c2c3c(sc21)CN(C(C)=O)CC3 | inactive
38 | CCC(=O)N1CCc2cc(Br)cc(S(=O)(=O)NCc3ccco3)c21 | inconclusive: 10 µM [inhibitor, partial curve, poor fit]
39 | O=C1NC(c2ccc(-c3ccccc3[N+](=O)[O-])o2)C(C(=O)c2ccc(F)cc2)C(O)(C(F)(F)F)N1 (stereo not given) | inconclusive: 100 µM [inhibitor, partial curve, poor fit]
40 | CCCCC(=O)N1C/C=C\C(c2ccc(OC)cc2)N(Cc2ccc(F)cc2)C(=O)C1 (stereo not given) | inconclusive: 22.4 µM [inhibitor, partial curve, poor fit]

Row | SMILES | Potency
41 | Cc1cc(=O)[nH]c(NN)n1 | inconclusive: 20 µM [inhibitor, full curve, poor fit]
42 | COc1ccc(OCCCC(=O)Nc2cccc([N+](=O)[O-])c2)cc1 | inconclusive: 100 µM [inhibitor, partial curve, poor fit]
43 | C/C(=N\NC(=O)c1cc2ccccc2cc1O)c1cccs1 | inconclusive: 15.8 µM [inhibitor, partial curve, poor fit]
44 | O=C(N/N=C/c1cn(Cc2ccccc2)c2ccccc12)c1cc(O)cc(O)c1 | inconclusive: 25.1 µM [inhibitor, full curve, poor fit]
45 | Cc1ccc(-c2nc3scc(CCNC(=O)c4cccc(Br)c4)n3n2)cc1 | inactive
46 | CS(=O)(=O)c1ccc2nc(NC(=O)CS(=O)(=O)c3ccc(Cl)cc3)sc2c1 | inconclusive: 12.6 µM [inhibitor, partial curve, poor fit]
47 | CC(=O)c1cc(-c2ccc(F)cc2)n(CCC(=O)NCc2ccccc2C)c1C | inactive
48 | NC(=S)N1N=C(c2ccccc2)CC1=O | inconclusive: 39.8 µM [inhibitor, single point]
49 | COc1cc2c(-c3ccccc3C)nc3c(c(C)nn3-c3ccccc3)c2cc1OC | inconclusive: 89.1 µM [inhibitor, single point]
50 | CCOC(=O)c1sc(NC(=O)c2c(C)nn(Cc3ccccc3)c2C)cc1C | inconclusive: 22.4 µM [inhibitor, single point]
51 | COc1ccc(C(=O)N2c3ccccc3CC2C)cc1OC (stereo not given) | inconclusive: 35.5 µM [inhibitor, single point]
52 | O=C(Cn1c(=O)n(Cc2ccco2)c(=O)c2cccnc21)Nc1ccccc1F | inactive
53 | COc1cc(C=C2C(=O)c3ccccc3C2=O)ccc1O | inconclusive: 15.8 µM [inhibitor, partial curve]
54 | CCOc1ccccc1NC(=O)CSc1nc2ccccc2c2nc(CCn3cncc3C)nn12 | inconclusive: 79.4 µM [inhibitor, partial curve]
55 | COc1ccc(S(=O)(=O)Nc2ccc(-c3ccc4nnc(C)n4n3)cc2)c(OC)c1 | inconclusive: 50.1 µM [inhibitor, single point]
56 | CCSC1=N/C(=C\c2ccc3c(c2)OCO3)C(=O)S1 | inconclusive: 22.4 µM [inhibitor, partial curve, poor fit]
57 | Brc1ccc(CSc2ncn[nH]2)cc1 | inactive
58 | CCc1cc(-c2n[nH]c(CCC(=O)O)c2-c2nc3ccccc3n2C)c(O)cc1O | inconclusive: 12.6 µM [inhibitor, partial curve, poor fit]
59 | C#CCOCCOCCOCCNc1nc(N2CCN(C(=O)[C@H]([C@@H](C)CC)n3cc([C@@H](N)CO)nn3)CC2)nc(N2CCN(C(=O)[C@H](Cc3ccc(O)cc3)n3cc([C@@H](N)CC(C)C)nn3)CC2)n1 | inconclusive: 20 µM [inhibitor, full curve, poor fit]
60 | O=C(O)c1ccc(COc2ccc3ccccc3c2)o1 | inconclusive: 15.8 µM [inhibitor, partial curve]
